Some entries repeat one wording, which the source may state once for all of them.
Tests used:
[1] = Melamine formaldehyde PMC Headspace Response Ratio; settings: for Melamine formaldehyde PMC Headspace Response Ratio (Comment Code I): class code letter within Comment Code; for Comment Code: Melamine formaldehyde PMC Headspace Response Ratio: code letter I
[2] = Melamine formaldehyde PMC leakage; settings: for Melamine formaldehyde PMC leakage (Comment Code J): class code letter within Comment Code; for Comment Code: Melamine formaldehyde PMC leakage: code letter J

SMILES	Melamine formaldehyde PMC Headspace Response Ratio (Comment Code I) [1]	Melamine formaldehyde PMC leakage (Comment Code J) [2]	Comment Code: Melamine formaldehyde PMC Headspace Response Ratio [1]	Comment Code: Melamine formaldehyde PMC leakage [2]
CC1=CC2(C=CC(C)O2)C(C(C)C)CC1 (stereo not shown) [Material 68]	I (Melamine formaldehyde PMC Headspace Response Ratio greater than or equal to 10)	J (Melamine formaldehyde PMC leakage less than or equal to 5%)	–	–
CC1(C)C2CC=C(C=O)C1C2 (stereo not shown) [Material 70]	I (Melamine formaldehyde PMC Headspace Response Ratio greater than or equal to 10)	J (Melamine formaldehyde PMC leakage less than or equal to 5%)	–	–
CC(=O)/C=C/C1C(C)CCC(C)C1(C)C (stereo not shown) [Material 71]	I (Melamine formaldehyde PMC Headspace Response Ratio greater than or equal to 10)	J (Melamine formaldehyde PMC leakage less than or equal to 5%)	–	–
C=CC(C)=CCC1OC1(C)C (stereo not shown) [Material 73]	–	–	I (Melamine formaldehyde PMC Headspace Response Ratio greater than or equal to 10)	J (Melamine formaldehyde PMC leakage less than or equal to 5%)
Cc1c(C)c([N+](=O)[O-])c(C(C)(C)C)c([N+](=O)[O-])c1C [Material 75]	I (Melamine formaldehyde PMC Headspace Response Ratio greater than or equal to 10)	J (Melamine formaldehyde PMC leakage less than or equal to 5%)	–	–
COc1c(C(C)(C)C)cc([N+](=O)[O-])c(C)c1[N+](=O)[O-] [Material 78]	I (Melamine formaldehyde PMC Headspace Response Ratio greater than or equal to 10)	J (Melamine formaldehyde PMC leakage less than or equal to 5%)	–	–
CCC(C)(O)/C=C/C=C(C)C (stereo not shown) [Material 81]	–	–	I (Melamine formaldehyde PMC Headspace Response Ratio greater than or equal to 10)	J (Melamine formaldehyde PMC leakage less than or equal to 5%)
CC(C)C1CCC(C(C)O)CC1 (stereo not shown) [Material 83]	I (Melamine formaldehyde PMC Headspace Response Ratio greater than or equal to 10)	J (Melamine formaldehyde PMC leakage less than or equal to 5%)	–	–
COC(OC)C(C)(C)CC=C(C)C [Material 93]	I (Melamine formaldehyde PMC Headspace Response Ratio greater than or equal to 10)	J (Melamine formaldehyde PMC leakage less than or equal to 5%)	–	–
COC(=O)C1C(C)=CCCC1(C)C (stereo not shown) [Material 123]	I (Melamine formaldehyde PMC Headspace Response Ratio greater than or equal to 10)	J (Melamine formaldehyde PMC leakage less than or equal to 5%)	–	–
COC(C)(C)CCCC(C)C=O (stereo not shown) [Material 125]	–	–	I (Melamine formaldehyde PMC Headspace Response Ratio greater than or equal to 10)	J (Melamine formaldehyde PMC leakage less than or equal to 5%)
COC(C)(C)CCCC(C)CC=O (stereo not shown) [Material 126]	I (Melamine formaldehyde PMC Headspace Response Ratio greater than or equal to 10)	J (Melamine formaldehyde PMC leakage less than or equal to 5%)	–	–
O=CC1CCC2C3CCC(C3)C12 (stereo not shown) [Material 130]	I (Melamine formaldehyde PMC Headspace Response Ratio greater than or equal to 10)	J (Melamine formaldehyde PMC leakage less than or equal to 5%)	–	–
CC(C)C1CCC(CO)CC1 (stereo not shown) [Material 133]	–	–	I (Melamine formaldehyde PMC Headspace Response Ratio greater than or equal to 10)	J (Melamine formaldehyde PMC leakage less than or equal to 5%)
Cc1cccc(CC(C)(C)CO)c1 [Material 140]	I (Melamine formaldehyde PMC Headspace Response Ratio greater than or equal to 10)	J (Melamine formaldehyde PMC leakage less than or equal to 5%)	–	–
C=C(C)C1CC=C(C)CC1 (stereo not shown) [Material 145]	I (Melamine formaldehyde PMC Headspace Response Ratio greater than or equal to 10)	J (Melamine formaldehyde PMC leakage less than or equal to 5%)	–	–
C=CC1(C)CCC(C(C)(C)O)O1 (stereo not shown) [Material 155]	I (Melamine formaldehyde PMC Headspace Response Ratio greater than or equal to 10)	J (Melamine formaldehyde PMC leakage less than or equal to 5%)	–	–
C=CC1(C)CCC(C(C)(C)O)O1 (stereo not shown) [Material 156]	I (Melamine formaldehyde PMC Headspace Response Ratio greater than or equal to 10)	J (Melamine formaldehyde PMC leakage less than or equal to 5%)	–	–
C=CC(C)(O)CCC=C(C)C (stereo not shown) [Material 157]	–	–	I (Melamine formaldehyde PMC Headspace Response Ratio greater than or equal to 10)	J (Melamine formaldehyde PMC leakage less than or equal to 5%)

SMILES	Melamine formaldehyde PMC Headspace Response Ratio (Comment Code I) [1]	Melamine formaldehyde PMC leakage (Comment Code J) [2]	Comment Code: Melamine formaldehyde PMC Headspace Response Ratio [1]	Comment Code: Melamine formaldehyde PMC leakage [2]
CC1=CCC(C(C)CC=O)CC1 (stereo not shown) [Material 159]	I (Melamine formaldehyde PMC Headspace Response Ratio greater than or equal to 10)	J (Melamine formaldehyde PMC leakage less than or equal to 5%)	–	–
C=C(C)[C@@H]1CC=C(C)C(=O)C1 [Material 169]	–	–	I (Melamine formaldehyde PMC Headspace Response Ratio greater than or equal to 10)	J (Melamine formaldehyde PMC leakage less than or equal to 5%)
C=C(C)C1CC=C(C)C(O)C1 (stereo not shown) [Material 170]	I (Melamine formaldehyde PMC Headspace Response Ratio greater than or equal to 10)	J (Melamine formaldehyde PMC leakage less than or equal to 5%)	–	–
CCCCCCC1(C)CCC(=O)O1 (stereo not shown) [Material 177]	I (Melamine formaldehyde PMC Headspace Response Ratio greater than or equal to 10)	J (Melamine formaldehyde PMC leakage less than or equal to 5%)	–	–
CC1CCC2C(C1)OC(=O)C2C (stereo not shown) [Material 179]	I (Melamine formaldehyde PMC Headspace Response Ratio greater than or equal to 10)	J (Melamine formaldehyde PMC leakage less than or equal to 5%)	–	–
C=C(OCC)C1C(C)(C)CC(=O)CC1(C)C [Material 182]	I (Melamine formaldehyde PMC Headspace Response Ratio greater than or equal to 10)	J (Melamine formaldehyde PMC leakage less than or equal to 5%)	–	–
CCCCCC(C#N)CCC (stereo not shown) [Material 186]	I (Melamine formaldehyde PMC Headspace Response Ratio greater than or equal to 10)	J (Melamine formaldehyde PMC leakage less than or equal to 5%)	–	–
CC1=CCC(C)C(C)C12C=CC(C)O2 (stereo not shown) [Material 192]	I (Melamine formaldehyde PMC Headspace Response Ratio greater than or equal to 10)	J (Melamine formaldehyde PMC leakage less than or equal to 5%)	–	–
C=C(C)C1CCC(C)CC1O (stereo not shown) [Material 193]	I (Melamine formaldehyde PMC Headspace Response Ratio greater than or equal to 10)	J (Melamine formaldehyde PMC leakage less than or equal to 5%)	–	–
CCC(C)C(=O)OC(C)C (stereo not shown) [Material 198]	–	–	I (Melamine formaldehyde PMC Headspace Response Ratio greater than or equal to 10)	J (Melamine formaldehyde PMC leakage less than or equal to 5%)
C=C(C)CC(C)OC(=O)C(C)C (stereo not shown) [Material 201]	–	–	I (Melamine formaldehyde PMC Headspace Response Ratio greater than or equal to 10)	J (Melamine formaldehyde PMC leakage less than or equal to 5%)
CC1=CC(C)C(C=O)C(C)C1 (stereo not shown) [Material 218]	I (Melamine formaldehyde PMC Headspace Response Ratio greater than or equal to 10)	J (Melamine formaldehyde PMC leakage less than or equal to 5%)	–	–
CCC(=O)OC1CC2CCC1(C)C2(C)C (stereo not shown) [Material 228]	I (Melamine formaldehyde PMC Headspace Response Ratio greater than or equal to 10)	J (Melamine formaldehyde PMC leakage less than or equal to 5%)	–	–
CC(C)C(=O)OC1CC2CCC1(C)C2(C)C (stereo not shown) [Material 229]	I (Melamine formaldehyde PMC Headspace Response Ratio greater than or equal to 10)	J (Melamine formaldehyde PMC leakage less than or equal to 5%)	I (Melamine formaldehyde PMC Headspace Response Ratio greater than or equal to 10)	J (Melamine formaldehyde PMC leakage less than or equal to 5%)
CC(=O)OC1CC2CCC1(C)C2(C)C (stereo not shown) [Material 231]	I (Melamine formaldehyde PMC Headspace Response Ratio greater than or equal to 10)	J (Melamine formaldehyde PMC leakage less than or equal to 5%)	–	–
CC(C)CCOC(=O)C(C)C [Material 239]	–	–	I (Melamine formaldehyde PMC Headspace Response Ratio greater than or equal to 10)	J (Melamine formaldehyde PMC leakage less than or equal to 5%)
CC(CCO)CCCC(C)(C)O (stereo not shown) [Material 249]	I (Melamine formaldehyde PMC Headspace Response Ratio greater than or equal to 10)	J (Melamine formaldehyde PMC leakage less than or equal to 5%)	–	–
CCCCC1OC(C)CC(C)(C)O1 (stereo not shown) [Material 278]	I (Melamine formaldehyde PMC Headspace Response Ratio greater than or equal to 10)	J (Melamine formaldehyde PMC leakage less than or equal to 5%)	–	–

Reference: US20160090556A1, “PRODUCTS COMPRISING MALODOR REDUCTION MATERIALS” (The Procter & Gamble Company, priority 2014, published 2016)
